## Library screening results

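Whole-cell assay for inhibitors of Mycobacterium tuberculosis growth, labelled Cornell in the record; the read-out is not stated. The concentration is filed as 10 mM, unlikely as a test dose, so the dose is not known. The record gives no direction; compounds strong in two other growth screens of this library score well above the rest, so higher reads as stronger inhibition. About 53,000 compounds were tested under these conditions; 1.7% (about 900) showed 50% or more at least once.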

The filed quantity is “Percent Effect” (%).
The controls that fix the scale are not given in the record; negative values are as filed.
This is an unselected part of the compounds tested.

{"smiles": "c1cnc2nc(N3CCCC3c3nnc4n3CCCCC4)ccc2n1", "stereo": "centres unmarked", "Percent Effect": 4.511}
{"smiles": "CN1CCC(N(CCc2ccccc2)Cc2noc(C3CC3)n2)CC1", "Percent Effect": 15.78}
{"smiles": "Cc1oncc1C(=O)N1CC2CC1(C(=O)N1CCCC1)C2", "Percent Effect": -29.72}
{"smiles": "O=C(NCCN1CCCC(CO)C1)c1ccc2scnc2c1", "stereo": "centres unmarked", "Percent Effect": -22.14}
{"smiles": "CCc1c(C(=O)N2CC[C@H](N3CCOCC3)[C@H](CCCO)C2)csc1C", "Percent Effect": 11.05}
{"smiles": "COc1cccc(Cn2ncnc2COC(C)C)c1", "Percent Effect": 15.01}
{"smiles": "CS(=O)(=O)NCC1CCCCN1C(=O)c1csc(-c2ccsc2)n1", "stereo": "centres unmarked", "Percent Effect": 6.786}
{"smiles": "Cc1nn(C)c(C)c1C1CCCN1C(=O)CCCn1cccn1", "stereo": "centres unmarked", "Percent Effect": -40.36}
{"smiles": "O=C(NCCSC1CCCC1)c1cnccn1", "Percent Effect": 2.409}
{"smiles": "N#Cc1cccnc1NCCNC(=O)N1CCCC(N2CCCC2)C1", "stereo": "centres unmarked", "Percent Effect": -6.121}
{"smiles": "Cc1nnc2n1CCN(Cc1csc(-c3ccsc3)n1)C2", "Percent Effect": -15.61}
{"smiles": "O=C1CN(C(=O)c2cc3ccc(Br)cc3[nH]2)CCN1", "Percent Effect": -2.014}
{"smiles": "COCCN(Cc1ccccn1)Cc1sccc1C", "Percent Effect": 23.63}
{"smiles": "CCn1cc(-c2cc(C(=O)N3CCOCC3)c3cc(Cl)ccc3n2)cn1", "Percent Effect": -35.23}
{"smiles": "CC(NC1(CNC(=O)Cn2cccn2)CCOCC1)c1ccccc1", "stereo": "centres unmarked", "Percent Effect": 10.63}
{"smiles": "Cc1noc(C)c1C1CCCN1CCC(=O)N1CCc2ccccc2C1", "stereo": "centres unmarked", "Percent Effect": 14.73}
{"smiles": "O=c1cnc2ccccc2n1CCCn1cccn1", "Percent Effect": -54.3}
{"smiles": "COc1cc(N2CC[C@@H](OC)[C@@H]2Cc2ccccc2)ncn1", "Percent Effect": 5.071}
{"smiles": "CC(C)Nc1ncc(-c2ccncc2)c([C@@H]2CCCO2)n1", "Percent Effect": 13.52}
{"smiles": "Cc1ccc(C(=O)NCC(O)c2cnn(C)c2)c(Br)c1", "stereo": "centres unmarked", "Percent Effect": 4.246}
{"smiles": "CCCSCC(=O)NCc1cccc(CN(C)CC)c1", "Percent Effect": -53.33}
{"smiles": "Cc1cc(C(=O)N(CC(C)C)CC(O)c2ccc(F)cc2)[nH]n1", "stereo": "centres unmarked", "Percent Effect": 9.803}
{"smiles": "O=C(c1ccsc1)N1CCc2c(CNc3ncccn3)n[nH]c2C1", "Percent Effect": 22.07}
{"smiles": "CC(C)C(=O)N1CCCC(c2cncc(Oc3cccnc3)n2)C1", "stereo": "centres unmarked", "Percent Effect": -0.657}
{"smiles": "[H][C@@]12COC[C@@H](Cc3nc(C)no3)[C@]1([H])CN(S(=O)(=O)CC)C2", "Percent Effect": -37.78}
{"smiles": "CNc1cncc(C2CCCN2C(=O)Cn2ccnc2C)n1", "stereo": "centres unmarked", "Percent Effect": 6.82}
{"smiles": "Cc1c(C(=O)N2CCCSCC2)nnn1-c1ccccc1Cl", "Percent Effect": 8.064}
{"smiles": "CNC(=O)c1cnc2c(C)csc2c1", "Percent Effect": -45.3}
{"smiles": "CCN(CC)Cc1cc(C(=O)N2CCC3(CC2)NCCNC3=O)c(C)o1", "Percent Effect": 11.2}
{"smiles": "CC(C)=CCN1CCN(Cc2cccc(C)n2)CC1CCO", "stereo": "centres unmarked", "Percent Effect": 9.642}
{"smiles": "Cc1ccc(NC2CCCN(Cc3ccc(Cl)cc3)C2)nn1", "stereo": "centres unmarked", "Percent Effect": 16.25}
{"smiles": "CCOC(=O)N1CCN(C(=O)c2cc(OCC)c3ccoc3c2)CC1", "Percent Effect": -60.1}
{"smiles": "Cc1ccnc(NCc2cn3c(C)csc3n2)n1", "Percent Effect": 5.047}
{"smiles": "O=C(NCCn1ccnc1)c1cccc(F)c1", "Percent Effect": 19.28}
{"smiles": "CC(=O)N1CC(C)CN(Cc2ccon2)c2ccccc21", "stereo": "centres unmarked", "Percent Effect": 28.57}
{"smiles": "Cc1ncc(CN2CCOC(c3ccc(-c4ccccc4F)cn3)C2)s1", "stereo": "centres unmarked", "Percent Effect": -24.67}
{"smiles": "Cc1cccc(O[C@H]2COCCN(Cc3sc(C)nc3C)C2)n1", "Percent Effect": -23}
{"smiles": "CN1CCc2[nH]cnc2C12CCN(Cc1ccc3nsnc3c1)CC2", "Percent Effect": 25.06}
{"smiles": "Cc1cc(CN(C)C(=O)CN2CC3(CCNCC3)OC2=O)n(C)n1", "Percent Effect": 17.6}

The first 4 entries again:

{"smiles": "c1cnc2nc(N3CCCC3c3nnc4n3CCCCC4)ccc2n1", "stereo": "centres unmarked", "Percent Effect": 4.511}
{"smiles": "CN1CCC(N(CCc2ccccc2)Cc2noc(C3CC3)n2)CC1", "Percent Effect": 15.78}
{"smiles": "Cc1oncc1C(=O)N1CC2CC1(C(=O)N1CCCC1)C2", "Percent Effect": -29.72}
{"smiles": "O=C(NCCN1CCCC(CO)C1)c1ccc2scnc2c1", "stereo": "centres unmarked", "Percent Effect": -22.14}

The values are deposited in ChEMBL (CHEMBL3988442, “University of Dundee, Small-Polar-MMV Screening Library” (2021)).